Reference: publication PMC11115250
No constants are given. Whether binding was seen depends on the method and setting. Binding seen in cells or lysates may run through a third protein. Binding calls can cover weak binding; strength is not graded here.

Key:
[1] = biological target: T1, RXRα (plasmid-encoded) (UniProt P28700); experiment: co-IP; nuclear fractions of 293T cells co-transfected with PPARγ, ZFP407 and RXRα plasmids; precipitated with an anti-RXRα antibody (Nuclear Complex Co-IP kit, Dynabeads Protein G); western blot
T1 sequence: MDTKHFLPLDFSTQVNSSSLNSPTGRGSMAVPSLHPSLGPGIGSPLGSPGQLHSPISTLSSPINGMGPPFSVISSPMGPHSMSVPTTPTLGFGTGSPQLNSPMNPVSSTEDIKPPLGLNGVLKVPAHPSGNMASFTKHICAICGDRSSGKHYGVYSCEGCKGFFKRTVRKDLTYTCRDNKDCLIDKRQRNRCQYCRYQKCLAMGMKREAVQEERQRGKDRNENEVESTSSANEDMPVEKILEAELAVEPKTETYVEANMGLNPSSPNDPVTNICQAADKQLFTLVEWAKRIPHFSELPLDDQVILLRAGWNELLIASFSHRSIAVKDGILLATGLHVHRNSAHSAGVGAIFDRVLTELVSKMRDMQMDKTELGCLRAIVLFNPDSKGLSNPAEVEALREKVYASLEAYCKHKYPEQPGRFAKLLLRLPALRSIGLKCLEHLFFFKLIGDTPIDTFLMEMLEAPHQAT

[2] = biological target: T2, RXRα (endogenous, 3T3-L1 adipocytes) (mouse (endogenous in 3T3-L1)) (UniProt P28700); experiment: co-IP; endogenous proteins, nuclear extracts of 3T3-L1 differentiated adipocytes; precipitated with anti-RXRα or anti-PPARγ antibody, matched IgG as control (Nuclear Complex Co-IP kit, Dynabeads Protein G); western blot
T2 sequence: T1 sequence

binding [1] | binding [2] | Substance
binds | – | ZFP407 (plasmid-encoded, Origene cat. MR214555) (mouse)
– | binds | ZFP407 (endogenous, 3T3-L1 adipocytes) (mouse (endogenous in 3T3-L1))
